Results taken from PubChem BioAssay AID445 (National Center for Advancing Translational Sciences (NCATS), 2006).
The list shows a part of the results. These are further read-outs of the screen, such as a control signal, another cell line or another target. No call is given for them. Most of these compounds were active or inconclusive in the main read-out, so they are no random draw. Potencies come from curve fits of mixed quality, noted in brackets.

Experiment: IkB Signaling
Details: ABC-DLBCL IkBa-CBG/CBR dual luciferase ratio (green luciferase fused to IkBa over red control in OCI-Ly3 lymphoma cells), 4 h
Outline: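 Luminescence ratio of IκBα-fused green versus native red beetle luciferase in OCI-Ly3 cells, 4 h post-doxycycline with compound; red signal alone, scaled from basal (0%) to zero light (-100%), flagged nonspecific or cytotoxic effects.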

[1] = measured here: control luc red channel unless noted

## CCSc1nnc(NC(=O)CSc2nccn2-c2cccc(C)c2)s1
[1]
  AC50: 15.8 µM [falling, partial curve]

## CC1Cc2cc(S(=O)(=O)NCc3ccc(F)cc3)ccc2N1C(=O)C1CCC1 (centres undefined)
[1]
  AC50: 0.00631 µM [rising, full curve, poor fit]

## CC(=O)Oc1ccc(-c2ccc(C(=O)O)cc2)cc1
[1]
  AC50: 3.16 µM [falling, full curve]

## COCCN(CCOC)S(=O)(=O)c1ccc(C(=O)Nc2nc(-c3ccncc3)cs2)cc1
[1]
  AC50: 25.1 µM [falling, single point]

## O=C(NCc1cccs1)c1ccc(CSc2nc3ccncc3n2Cc2cccc(F)c2)cc1
[1]
  AC50: 12.6 µM [falling, single point]

## O=C(CSc1nc2c([nH]c3ccccc32)c(=O)n1-c1ccc(F)cc1)N1CCCCCC1
[1]
  AC50: 3.16 µM [rising, full curve]

## COc1ccccc1CNC(=O)Nc1ccc2c(c1)N(C)C(=O)c1ccccc1S2
[1]
  AC50: 7.94 µM [falling, partial curve]

## O=C(Nc1ccc(S(=O)(=O)NCc2ccco2)cc1)c1ccc2ccccc2n1
[1]
  AC50: 39.8 µM [rising, single point] [measured here: IkB-luc green channel]

## Clc1cccc(-c2noc3ncnc(NC4CCCCC4)c23)c1
[1]
  AC50: 6.31 µM [falling, partial curve]

## COc1cccc2cc(-c3nc(-c4cccs4)no3)c(=O)oc12
[1]
  AC50: 1.58 µM [falling, partial curve]

## c1ccc2c(c1)Cn1c-2nc2ccccc21
[1]
  AC50: 10 µM [falling, partial curve]

## COc1cc(NC(=O)CCc2c(C)nc3c(c(C)nn3-c3ccccc3)c2C)cc(OC)c1OC
[1]
  AC50: 15.8 µM [falling, partial curve]

## CN1C(=O)C2CCCCN2c2ccc(C(=O)NCc3ccccc3Br)cc21 (centres undefined)
[1]
  AC50: 31.6 µM [falling, single point]

## CCOC(=O)c1c(C)c(C(=O)NCCc2ccc(OC)cc2)c(C)n1CC
[1]
  AC50: 2 µM [falling, single point]

## CC(C)(C)C1CCc2c(sc3c2C(=O)NC(c2ccco2)N3)C1 (centres undefined)
[1]
  AC50: 31.6 µM [falling, single point]

## Cc1ccn2c(=O)c(C(=O)Nc3ccc(F)c(C(F)(F)F)c3)cnc2c1
[1]
  AC50: 3.98 µM [rising, partial curve]

## Cc1oc(-c2ccccc2F)nc1CN1CCC(C(=O)NCCc2ccc(Cl)cc2)CC1
[1]
  AC50: 12.6 µM [falling, partial curve]

## CCOc1ccc(-c2nonc2NC(=O)c2oc3ccc(Cl)cc3c2C)cc1
[1]
  AC50: 0.794 µM [falling, full curve]

## COC(=O)c1ccccc1NC(=O)CCCn1nc(C)c2sc3ccccc3c2c1=O
[1]
  AC50: 15.8 µM [falling, single point]

## COc1ccc(-c2nnn3c2nc(NCc2ccccc2)c2ccccc23)cc1
[1]
  AC50: 0.1 µM [falling, full curve]

## CC1=C(C(=O)Nc2ccc(C)cc2C)C(CC(C)C)n2nc(SCc3ccccc3C)nc2N1 (centres undefined)
[1]
  AC50: 1 µM [falling, partial curve]

## O=c1oc2c(F)cc(F)cc2cc1S(=O)(=O)c1ccc(F)cc1
[1]
  AC50: 31.6 µM [rising, partial curve] [measured here: IkB-luc green channel]

## Cc1cc(O)ccc1Nc1nc2ccccc2nc1Nc1ccc(O)cc1C
Measured here: IkB-luc green channel
  AC50: 1.58 µM [falling, full curve]
Measured here: control luc red channel
  AC50: 1.58 µM [falling, partial curve]

## CCOc1ccccc1NC(=O)c1c(NCc2ccc(C)o2)sc2c1CCCCC2
[1]
  AC50: 20 µM [falling, partial curve]

## Cc1nc(C)c(CCNS(=O)(=O)c2ccc(C)c(C)c2)s1
[1]
  AC50: 0.501 µM [rising, full curve, poor fit]

## Cc1ccc(Cc2nc3ccccc3nc2SCC(=O)N2CCCCC2)cc1
[1]
  AC50: 15.8 µM [falling, partial curve]

## CCOc1ccccc1-c1nc(-c2cc3ccccc3nc2OC)no1
[1]
  AC50: 2.51 µM [falling, full curve, poor fit]

## CCOc1ccc(CN2CCN(S(=O)(=O)c3ccc(Cl)cc3)CC2)cc1
[1]
  AC50: 25.1 µM [falling, single point]

## Cc1ccc(C)c(NC(=O)c2ccc(=O)n(Cc3ccc(F)cc3)c2)c1
[1]
  AC50: 1.58 µM [rising, full curve]

## Clc1cccc(N2CCN(c3nc4ccccc4c4nc(-c5cccnc5)nn34)CC2)c1
[1]
  AC50: 6.31 µM [rising, single point]

## O=C(O)CCCC(=O)Nc1cccc(-c2nc3ccccc3[nH]2)c1
[1]
  AC50: 15.8 µM [falling, partial curve]

## CCCCC(=O)Nc1cc(-c2nc3ccccc3o2)ccc1OC
[1]
  AC50: 31.6 µM [falling, single point]

## COc1ccc(-c2ccc(NS(=O)(=O)c3ccccc3)cc2)nn1
[1]
  AC50: 0.01 µM [rising, full curve, poor fit]

## Cc1ccc(NC(=O)CSc2ncccc2C(=O)Oc2ccccc2Cl)cc1Cl
[1]
  AC50: 0.0126 µM [falling, full curve]

## COc1ccc2[nH]cc(CCNC(=O)Nc3c(C)cccc3C)c2c1
[1]
  AC50: 3.98 µM [falling, partial curve, poor fit]

## Cc1cc(NC(=O)CN(C)S(=O)(=O)c2ccc3c(c2)CCCC(=O)N3)ccc1Br
[1]
  AC50: 39.8 µM [falling, partial curve, poor fit]

## COc1cc(-c2nc(Cn3nnc(C(=O)Nc4ccccc4C)c3C)c(C)o2)cc(OC)c1OC
[1]
  AC50: 7.94 µM [falling, partial curve]

## Cc1ccc(-c2cc(C(=O)N3CCN(c4ncccn4)CC3)c3ccccc3n2)cc1
[1]
  AC50: 10 µM [falling, partial curve]

## N=C(CC(=O)Nc1ccccn1)c1ccccc1
[1]
  AC50: 3.16 µM [falling, partial curve]

## COc1ccc(-c2n[nH]c3c2C(c2ccc(Cl)cc2Cl)NC3=O)cc1 (centres undefined)
[1]
  AC50: 25.1 µM [falling, partial curve]

## CCN(CCCNC(=O)c1ccc(Sc2ccc(C)cc2)c(NC(C)=O)c1)c1cccc(C)c1
[1]
  AC50: 25.1 µM [falling, partial curve]

## Cc1ccc2oc(-c3ccc(C)c(NC(=O)c4ccc5c(c4)OCCO5)c3)nc2c1
[1]
  AC50: 12.6 µM [falling, partial curve]

## Cc1ccc(F)cc1NC(=O)CCc1c(C)nn(-c2ccc(N3CCCCC3)nn2)c1C
[1]
  AC50: 15.8 µM [falling, partial curve]

## CCCC1=C(C(=O)OCC)C(c2cc(Cl)cc(OC)c2OCC(=O)OCC)NC(=O)N1 (centres undefined)
[1]
  AC50: 15.8 µM [falling, partial curve]

## CCOC(=O)c1ccc(-c2ccc(/C=C(\C#N)C(=O)Nc3c(C)cccc3Cl)o2)cc1
[1]
  AC50: 15.8 µM [falling, partial curve]

## O=S(=O)(NCc1ccc(F)cc1)c1ccc2[nH]c3c(c2c1)CCCCC3
[1]
  AC50: 25.1 µM [falling, partial curve]

## CCOC(=O)c1nc(Nc2ccc(OC)cc2)c2ccccc2n1
[1]
  AC50: 39.8 µM [falling, single point]

## Cc1ccccc1Nc1c(-c2cccc(O)c2)nc2ccc(Br)cn12
[1]
  AC50: 39.8 µM [falling, single point]

## Cc1ccc(-c2nn(-c3cccc([N+](=O)[O-])c3)c3c2cnc2ccc(F)cc23)cc1
[1]
  AC50: 20 µM [rising, partial curve]

## Cc1cccc(Nc2nc(Nc3cccc(C)c3)nc(N3CCOCC3)n2)c1
[1]
  AC50: 12.6 µM [falling, partial curve]

## COc1cc(OC)c(NC(=O)CSC2=Nc3ccccc3N=C(c3ccc(F)cc3)C2)cc1Cl
[1]
  AC50: 1 µM [falling, full curve, poor fit]

## CCOc1ccc(CNC(=O)c2ccc3c(c2)sc2nc(-c4ccc(OC)cc4)cn23)cc1
[1]
  AC50: 25.1 µM [falling, single point]

## Cc1sc(C2C(C#N)=C(N)N(c3cccc(Cl)c3)C3=C2C(=O)CCC3)cc1CN1CCOCC1 (centres undefined)
[1]
  AC50: 25.1 µM [falling, single point]

## C=CCn1c(NC(=O)c2ccccc2Cl)c(C#N)c2nc3ccccc3nc21
[1]
  AC50: 12.6 µM [falling, partial curve]

## O=C(Nc1ccc2sccc2c1)c1ccc(Cl)s1
[1]
  AC50: 7.94 µM [falling, partial curve]

## O=C(CCC1N=C2c3ccccc3N=C(SCc3ccccc3Cl)N2C1=O)NCc1cccs1 (centres undefined)
[1]
  AC50: 39.8 µM [falling, single point]

## CC(C)Cc1ccc(S(=O)(=O)Nc2ccc3[nH]c(=O)[nH]c3c2)cc1
[1]
  AC50: 25.1 µM [falling, single point]

## Cc1cccc(-c2nnc(SCc3nc4ccccc4[nH]3)n2Cc2ccco2)c1
[1]
  AC50: 12.6 µM [falling, partial curve]

## CCOc1ccc(OCC)c(NC(=O)c2cnc3c(-c4ccccc4)c(C)nn3c2C)c1
[1]
  AC50: 12.6 µM [falling, partial curve]

## Cc1cc(NC(=O)CSc2nc(-c3cccs3)cc(C(F)(F)F)n2)no1
[1]
  AC50: 0.501 µM [rising, full curve]

## O=c1c2oc3ccccc3c2n(Cc2cccc(Cl)c2)c(=O)n1Cc1ccc2c(c1)OCO2
[1]
  AC50: 2 µM [falling, partial curve]

## COc1ccccc1OCC(=O)NCC1(N2CCOCC2)CCCCC1
[1]
  AC50: 25.1 µM [falling, single point]

## O=C(NCc1cccc(Cl)c1)c1ccc(CS(=O)Cc2ccccc2Cl)o1 (centres undefined)
[1]
  AC50: 25.1 µM [falling, single point]
